Binding data for 1 molecule are collected here from paper doi:10.1101/2021.08.25.457671.

No constants are given. Whether binding was seen depends on the method and setting. In cells and extracts the contact can be indirect. Some binding calls cover weakened binding; strength is not graded here.

In the assay the target is T1, mammalian Lonp-1, P36776.
T1 chain: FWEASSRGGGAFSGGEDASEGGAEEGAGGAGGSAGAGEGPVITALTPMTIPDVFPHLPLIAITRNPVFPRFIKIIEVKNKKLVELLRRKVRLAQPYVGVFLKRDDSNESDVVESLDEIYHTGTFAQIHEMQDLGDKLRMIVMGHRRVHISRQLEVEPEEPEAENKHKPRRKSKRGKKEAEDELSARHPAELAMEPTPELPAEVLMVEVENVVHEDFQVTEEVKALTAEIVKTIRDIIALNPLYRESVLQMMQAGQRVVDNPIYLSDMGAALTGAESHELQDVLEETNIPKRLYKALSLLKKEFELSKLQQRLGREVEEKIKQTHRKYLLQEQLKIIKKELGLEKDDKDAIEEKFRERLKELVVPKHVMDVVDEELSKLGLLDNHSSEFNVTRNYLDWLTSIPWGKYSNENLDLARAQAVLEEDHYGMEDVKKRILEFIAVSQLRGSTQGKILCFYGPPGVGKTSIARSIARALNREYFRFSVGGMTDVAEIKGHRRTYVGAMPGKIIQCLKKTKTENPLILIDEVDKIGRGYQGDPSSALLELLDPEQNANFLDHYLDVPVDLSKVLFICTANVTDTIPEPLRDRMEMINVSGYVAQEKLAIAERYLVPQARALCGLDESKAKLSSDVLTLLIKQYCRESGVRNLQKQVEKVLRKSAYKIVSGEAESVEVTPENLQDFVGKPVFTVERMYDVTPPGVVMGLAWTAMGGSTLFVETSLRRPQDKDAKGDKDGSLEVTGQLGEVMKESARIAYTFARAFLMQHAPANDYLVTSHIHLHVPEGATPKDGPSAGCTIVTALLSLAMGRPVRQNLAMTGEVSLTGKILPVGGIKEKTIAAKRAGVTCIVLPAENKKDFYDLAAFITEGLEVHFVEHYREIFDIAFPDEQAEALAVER
Kind of assay: co-IP. Conditions: remark: other sources report otherwise.

B1: Hsp110, Q92598 1-858 (protein)
chain: MSVVGLDVGSQSCYIAVARAGGIETIANEFSDRCTPSVISFGSKNRTIGVAAKNQQITHANNTVSNFKRFHGRAFNDPFIQKEKENLSYDLVPLKNGGVGIKVMYMGEEHLFSVEQITAMLLTKLKETAENSLKKPVTDCVISVPSFFTDAERRSVLDAAQIVGLNCLRLMNDMTAVALNYGIYKQDLPSLDEKPRIVVFVDMGHSAFQVSACAFNKGKLKVLGTAFDPFLGGKNFDEKLVEHFCAEFKTKYKLDAKSKIRALLRLYQECEKLKKLMSSNSTDLPLNIECFMNDKDVSGKMNRSQFEELCAELLQKIEVPLYSLLEQTHLKVEDVSAVEIVGGATRIPAVKERIAKFFGKDISTTLNADEAVARGCALQCAILSPAFKVREFSVTDAVPFPISLIWNHDSEDTEGVHEVFSRNHAAPFSKVLTFLRRGPFELEAFYSDPQGVPYPEAKIGRFVVQNVSAQKDGEKSRVKVKVRVNTHGIFTISTASMVEKVPTEENEMSSEADMECLNQRPPENPDTDKNVQQDNSEAGTQPQVQTDAQQTSQSPPSPELTSEENKIPDADKANEKKVDQPPEAKKPKIKVVNVELPIEANLVWQLGKDLLNMYIETEGKMIMQDKLEKERNDAKNAVEEYVYEFRDKLCGPYEKFICEQDHQNFLRLLTETEDWLYEEGEDQAKQAYVDKLEELMKIGTPVKVRFQEAEERPKMFEELGQRLQHYAKIAADFRNKDEKYNHIDESEMKKVEKSVNEVMEWMNNVMNAQAKKSLDQDPVVRAQEIKTKIKELNNTCEPVVTQPKPKIESPKLERTPNGPNIDKKEEDLEDKNNFGAEPPHQNGECYPNEKNSVNMDLD
In the case of B1, the binding result is reported as “binds”.
